Laboratory results published in PubChem BioAssay AID1688 (National Center for Advancing Translational Sciences (NCATS), 2009).
About 2,400 (1.1%) of roughly 220,000 compounds were called active. Inconclusive results, whose numbers are uncertain, are shown with a selection of clear calls. Calls follow the shape of the dose curve; as a rule, active = well fitted inhibition curve with a large enough effect; inconclusive = small, poorly fitted or top-dose-only effect, or effect the other way; inactive = no such curve, though single readings can be large or run the other way. Potencies beside an inconclusive call are fits to weak or partial responses and may not hold up.

assay: qHTS Multiplex Assay to Identify Dual Action Probes in a Cell Model of Huntington: Aggregate Formation (GFP); conditions: PC12 HttQ103-GFP aggregates, Acumen cytometry, 40 h; activity change, negative = inhibition: at 46.1 µM (top of the series) unless noted; also: nearly all actives have a fitted effect of over 60% in size
Method in brief: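 Using laser scanning cytometry, GFP-positive aggregates were counted after lysis of PC12 cells induced with 100 nM tebufenozide to express HTT exon 1 Q103–GFP. Compounds were tested in titration.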
% is scaled to controls: 0 for no effect and ±100 for the full control effect; potency is read from the fitted curve at half-maximal effect.

| SMILES | Potency | activity change, negative = inhibition |
| --- | --- | --- |
| COc1ccc(-c2cc(OC)c3ccccc3n2)cc1 | inconclusive: 8.91 µM [inhibitor, partial curve] |  |
| CC1=C(C(=O)NCc2ccccc2)C(c2cccs2)NC(=S)N1 (stereo not drawn) |  | inactive: 0.502% |
| C=CCn1c(SCC(=O)c2ccc(F)cc2)nnc1-c1ccc2c(c1)OCO2 |  | inactive: -4.89% |
| Cn1c(SCc2cnc(-c3ccccc3)s2)nnc1C1COc2ccccc2O1 (stereo not drawn) |  | inactive: -2.79% |
| CC(C)(C)n1cnc(C(N)=O)c1N |  | inactive: 5.81% |
| CCOc1cccc(NC(=O)Cc2cccs2)c1 |  | inactive: -13% |
| Cn1[nH]c(C(F)(F)F)c(C=Nc2ccc(Cl)cc2)c1=O |  | inactive: 0.544% |
| CCCCc1cc2c(c(NC(=O)CC)n1)c(=O)oc1ccccc12 | inconclusive: 5.62 µM [inhibitor, single point] |  |
| O=C(Nc1ccc(Cc2ccncc2)cc1)c1ccc(N2CCOCC2)c([N+](=O)[O-])c1 | inconclusive: 35.5 µM [inhibitor, single point] |  |
| CCNC(=O)c1ccc(CSc2ccc(Cl)cc2)cc1 |  | inactive: -9.27% |
| COc1ccc(OC)c(NC(=O)Cn2cc(C(=O)c3ccco3)c3ccccc32)c1 | inconclusive: 35.5 µM [inhibitor, single point] |  |
| CCc1ccc2oc(-c3ccc(OC)cc3)cc(=Nc3c(C)n(C)n(-c4ccccc4)c3=O)c2c1 | inconclusive: 35.5 µM [inhibitor, single point] |  |
| C=CCn1c(COc2ccccc2)nnc1SC(C)C(=O)N/N=C/c1cc(Cl)ccc1O (stereo not drawn) | active: 10 µM |  |
| Cc1cccc(-c2nnc3n2N=C(c2ccccc2Br)CS3)c1 | inconclusive: 22.4 µM [inhibitor, single point] |  |
| N#CC1=C(C=Nc2ccccc2O)CCC1 | inconclusive: 0.112 µM [activator, full curve, poor fit] |  |
| COC(=O)C1=C(C)NC(C)=C(C(=O)OC)C1/C=C/c1ccccc1 | inconclusive: 15.8 µM [activator, single point] |  |
| Cn1c(=O)c2c(nc(CN3CCC(Cc4ccccc4)CC3)n2CCN2CCOCC2)n(C)c1=O | inconclusive: 0.316 µM [inhibitor, partial curve] |  |
| CCOC(=O)c1cnc(-n2nc(C)cc2C)[nH]c1=O |  | inactive: -5.51% [at 9.22 µM] |
| O=S(=O)(Nc1nc2c(s1)CCCC2)c1ccc(Br)cc1 | inconclusive: 35.5 µM [inhibitor, single point] |  |
| CCNC(=O)Nc1ccc(-n2nc(C)c(C(=O)OCC)c2C)nc1 |  | inactive: -1.6% |
| COC(=O)C1=C(C)NC(=O)CC1c1ccc(C(=O)OC)cc1 (stereo not drawn) | inconclusive: 0.562 µM [inhibitor, single point] |  |
| CCN(CC)S(=O)(=O)c1ccc(F)c(C(=O)NCCC(C)C)c1 | inconclusive: 0.794 µM [inhibitor, full curve, poor fit] |  |
| CC1CCN(CC(=O)c2cccs2)CC1 |  | inactive: 15.3% |
| CCCC(=O)Nc1ccc(C#Cc2ccccc2)cc1 | inconclusive: 0.0022 µM [inhibitor, full curve, poor fit] |  |
| Cc1cc(C)c2nc(N3CCN(C)CC3)c(C#N)cc2c1 |  | inactive: 13.3% |

| SMILES | Potency | activity change, negative = inhibition |
| --- | --- | --- |
| O=C(/C=C/c1ccc(Br)cc1)NC1CCCCCC1 |  | inactive: 11.2% |
| COc1cccc(C2=NOC(C(=O)N3CCc4ccccc4C3)C2)c1 (stereo not drawn) |  | inactive: -11.8% |
| COc1cc(C(Nc2ccccn2)c2c(NC(=O)c3ccco3)sc(C)c2C)cc(OC)c1OC (stereo not drawn) | inconclusive: 35.5 µM [activator, single point] |  |
| CCOC(=O)Cc1csc(SCc2nc3sc4c(c3c(=O)[nH]2)CCC4)n1 | inconclusive: 2.82 µM [activator, full curve, poor fit] |  |
| N#C/C(=C/Nc1ccccc1)c1ccsc1 | active: 12.6 µM |  |
| Cc1cc(C)c(C#N)c(N2CCN(CCOc3ccc(Cl)cc3)CC2)n1 | inconclusive: 22.4 µM [inhibitor, single point] |  |
| c1ccc(-c2cc(-c3nnc4n3N=C(c3ccc5ccccc5c3)CS4)[nH]n2)cc1 | inconclusive: 35.5 µM [inhibitor, single point] |  |
| O=C1N/C(=C/c2ccc(N3CCCC3)cc2)C(=O)N1c1ccccc1 | inconclusive: 31.6 µM [activator, single point] |  |
| COCCOC(=O)c1[nH]c2c(c1C)C(=O)CC(c1ccccc1)C2 (stereo not drawn) | inconclusive: 15.8 µM [inhibitor, partial curve] |  |
| Nc1cccc(CCc2nc3cc4ccccc4cc3[nH]2)c1 | inconclusive: 31.6 µM [activator, single point] |  |
| CN(C)S(=O)(=O)Oc1ccsc1C(=O)Nc1ccc(Cl)c(Cl)c1 | inconclusive: 35.5 µM [inhibitor, single point] |  |
| O=C(NC(NC(=O)c1ccccc1)C(=O)c1ccccc1)c1ccccc1 | inconclusive: 5.01 µM [activator, single point] |  |
| COc1ccc(CN2CCNC(=O)C2CC(=O)NCCC2=CCCCC2)cc1OC (stereo not drawn) |  | inactive: 0.833% [at 9.22 µM] |
| COc1ccc(-n2cc(-c3ccccc3)c3c(NCCCN4CCOCC4)ncnc32)cc1 | inconclusive: 35.5 µM [inhibitor, single point] |  |
| Cc1cccc(C)c1Nc1c(-c2ccccn2)nc2ccccn12 | inconclusive: 31.6 µM [inhibitor, single point] |  |
| CCC1(C)N(O)C(C)(C)C(c2ccc(F)cc2)=[N+]1[O-] (stereo not drawn) |  | inactive: -8.16% |
| Cc1cc(=O)[nH]c(N=N/C(=N/Nc2ccccc2C)c2ccccc2)n1 | inconclusive: 1.58 µM [inhibitor, full curve] |  |
| COc1cccc(/C=N/Nc2ncnc(Cl)c2N)c1O | inconclusive: 1.26 µM [inhibitor, full curve] |  |
| CSc1nc2sc3c(c2c2nncn12)CCC3 |  | inactive: -1.4% |
| Cc1cc2occ(CC(=O)NC3CCCc4ccccc43)c2cc1C (stereo not drawn) |  | inactive: 17.2% |
| O=C(CCc1ccccc1)Nc1ccc(NC(=O)c2ccco2)nc1 |  | inactive: -0.202% |
| O=C(Nc1ccc(Oc2cccnc2)cc1)c1ccccc1Cl | active: 11.2 µM |  |
| Cc1ccc(C(=O)Cn2c(C(=O)/C=C/c3ccccc3)nc3ccccc32)cc1 | active: 11.2 µM |  |
| Cc1ccc(-n2nc(C)c3c2OC(N)=C(C#N)C3c2ccccc2F)cc1 (stereo not drawn) | inconclusive: 1.26 µM [activator, partial curve] |  |
| Cc1nc(C)c(C(=O)Nc2ncc([N+](=O)[O-])s2)o1 |  | inactive: -8.8% |

By substructure, the entries above with fluorine

| SMILES | Potency | activity change, negative = inhibition |
| --- | --- | --- |
| C=CCn1c(SCC(=O)c2ccc(F)cc2)nnc1-c1ccc2c(c1)OCO2 |  | inactive: -4.89% |
| Cn1[nH]c(C(F)(F)F)c(C=Nc2ccc(Cl)cc2)c1=O |  | inactive: 0.544% |
| CCN(CC)S(=O)(=O)c1ccc(F)c(C(=O)NCCC(C)C)c1 | inconclusive: 0.794 µM [inhibitor, full curve, poor fit] |  |
| CCC1(C)N(O)C(C)(C)C(c2ccc(F)cc2)=[N+]1[O-] (stereo not drawn) |  | inactive: -8.16% |
| Cc1ccc(-n2nc(C)c3c2OC(N)=C(C#N)C3c2ccccc2F)cc1 (stereo not drawn) | inconclusive: 1.26 µM [activator, partial curve] |  |

Next part

| SMILES | Potency | activity change, negative = inhibition |
| --- | --- | --- |
| O=C(O)CCNS(=O)(=O)c1ccc(Oc2ccccc2)cc1 |  | inactive: -7.8% |
| c1cc(CNc2ccc(N3CCOCC3)cc2)ccn1 | inconclusive: 35.5 µM [activator, single point] |  |
| CCCCNC(=O)c1ccccc1NC(=O)CCC | inconclusive: 0.501 µM [activator, full curve, poor fit] |  |
| O=C(Oc1cccc(-c2cnc3ccccc3n2)c1)c1ccco1 | inconclusive: 1 µM [activator, full curve, poor fit] |  |
| Cc1cc(C)nc(SCC(=O)N/N=C/C=C/c2ccccc2)n1 | inconclusive: 35.5 µM [activator, single point] |  |
| Cc1c(F)cccc1NS(=O)(=O)c1ccc2c(c1)c(=O)n(C)c(=O)n2C | inconclusive: 20 µM [inhibitor, partial curve, poor fit] |  |
| COc1ccc(OC)c(S(=O)(=O)N2CCC(C(=O)Nc3cc(C)ccc3C)CC2)c1 | inconclusive: 12.6 µM [inhibitor, single point] |  |
| CC1CCCN(C(C(=O)Nc2ccc(C(C)C)cc2)c2ccc3c(c2)OCO3)C1 (stereo not drawn) | inconclusive: 35.5 µM [inhibitor, single point] |  |
| O=C(CC(C(=O)O)P(=O)(c1ccccc1)c1ccccc1)c1ccccc1 (stereo not drawn) |  | inactive: -11.1% [at 9.22 µM] |
| COc1ccc(C(=O)c2c(C(F)(F)F)oc3c2C(=O)c2ccccc2C3=O)cc1OC | inconclusive: 5.62 µM [inhibitor, single point] |  |
| CC(C)CC(=O)Nc1cc([N+](=O)[O-])ccc1Cl |  | inactive: -0.43% |
| CCOC(=O)CN1C(=O)C(=O)c2cccc(C)c21 | inconclusive: 0.562 µM [activator, full curve, poor fit] |  |
| CC(C)NS(=O)(=O)c1ccc(NC(=O)C(C)Oc2ccc(C(=O)c3ccccc3)cc2)cc1 (stereo not drawn) | inconclusive: 11.2 µM [inhibitor, partial curve] |  |
| Cc1oc(C(C)(C)C)cc1C(=O)Nc1ccc2c(c1)OCCO2 | inconclusive: 17.8 µM [inhibitor, single point] |  |
| CC(C)(C)Nc1nc2nonc2nc1NC(C)(C)C | inconclusive: 35.5 µM [inhibitor, single point] |  |
| COCCN1C(=O)/C(=C/c2ccc(OCc3ccc(C(=O)O)cc3)c(OC)c2)SC1=Nc1ccccc1 | inconclusive: 35.5 µM [inhibitor, single point] |  |
| Cc1cc(NO)c(C(C)C)cc1N=O | active: 3.16 µM |  |
| CCN(CC)S(=O)(=O)c1cc(NC(=O)C(=O)c2c(-c3ccccc3)cc3ccccn23)ccc1C | inconclusive: 14.1 µM [inhibitor, single point] |  |
| Cc1ccc(C(C)n2cc(C(=O)NCc3ccccn3)nn2)cc1 (stereo not drawn) |  | inactive: -9.38% |
| C=CCN1C(=O)/C(=C2/C(=O)N(CC(=O)O)c3ccccc32)S/C1=N/c1nccs1 | inconclusive: 22.4 µM [inhibitor, single point] |  |
| COc1ccc(-n2nnnc2S(=O)(=O)Cc2ccc(C(=O)O)cc2)cc1 | inconclusive: 15.8 µM [inhibitor, single point] |  |
| c1coc(CNc2ncnc3c2oc2ccccc23)c1 | inconclusive: 11.2 µM [inhibitor, partial curve] |  |
| COC(=O)C1=C(N)Oc2cc(C)n(CC3CCCO3)c(=O)c2C1c1ccc(Cl)c(Cl)c1 (stereo not drawn) | inconclusive: 25.1 µM [inhibitor, single point] |  |
